Data: PubChem BioAssay AID588497 (NMMLSC, 2011)
About 780 (0.22%) of roughly 360,000 compounds were called active. Inconclusive results, whose numbers are uncertain, are shown with a selection of clear calls. Rule as the data show it: active = inhibition above about 35% (passing the limit was not always enough); inconclusive = no clear call, values can overlap the other calls.

What follows are molecules tested on Botulinum neurotoxin type F light chain protease (Clostridium botulinum) (assay: BoNT/F light chain protease inhibitors, primary screen, biochemical, flow cytometry, MLPCN library (AID 588497; also: plate controls were buffer without enzyme for full effect and enzyme alone for no effect)). Conditions: Multiplex microsphere protease cleavage assay, at 10 µM, hits give high values.

Row | Compound | inhibition
1 | CCOc1cc(C(=O)OCc2cccc(OC)c2OC)ccc1OCC(=O)N1CCOCC1 | inconclusive: -1.9%
2 | O=C(NNc1ncccc1-n1cccc1)c1ccc(Cl)cc1 | inconclusive: -2.6%
3 | O=C(Cc1ccc(Cl)cc1)NCCc1c[nH]c2ccccc12 | inconclusive: 21.5%
4 | Cc1ccnc(NS(=O)(=O)c2cccc3nsnc23)c1 | inconclusive: 14%
5 | Cc1cccc2[nH]c3c(N4CC=C(c5ccc(F)cc5)CC4)ncnc3c12 | inconclusive: -75.5%
6 | CN1CCN(c2oc(-c3ccccc3)nc2S(=O)(=O)c2ccc(Br)cc2)CC1 | inactive: -8.9%
7 | O=C(Nc1ccc(Cl)cc1C(=O)NCC1CCCO1)c1ccco1 (configuration not stated) | inactive: -3.2%
8 | CC1CC(C)CN(C(=O)c2cccc3c2-c2ccccc2C3=O)C1 (configuration not stated) | inconclusive: 7.3%
9 | C[C@H](NC(=O)OC(C)(C)C)C(=O)N/N=C/C1=Cc2ccccc2OC1 | inconclusive: 32.4%
10 | O=C(Nc1ccccc1)c1cc2c(=O)c3ccccc3oc2nc1C(F)(F)F | inactive: -2.6%
11 | Fc1c(F)c(C(F)(F)F)c(F)c(F)c1N1CCN(c2ccc3nnc(C(F)(F)F)n3n2)CC1 | inconclusive: -2.6%
12 | COc1ccc(CCN(C)C(=O)c2cc(S(=O)(=O)N3CCCCCC3)ccc2OC)cc1OC | inactive: -4%
13 | O=S(=O)(Cc1ccccc1)Nc1ccccc1Br | inconclusive: 17.7%
14 | NC(=O)Cn1nc(-c2ccccc2)nc1-c1ccccc1 | inconclusive: -12.5%
15 | COc1ccc(C(=O)CCc2ccccc2)cc1 | inactive: -2.4%
16 | Cc1c(/C=N/Nc2nc3ccccc3[nH]2)c2ccccc2n1C | inconclusive: -88.9%
17 | O=C1[C@@H]2CSCN2C(=O)CN1Cc1cccc(C(F)(F)F)c1 | inconclusive: -21%
18 | COc1cc(-c2n[nH]c(=S)n2-c2ccc(Br)cc2)cc(OC)c1OC | inconclusive: 37.5%
19 | COCCCOc1cc(NCc2ccccc2)c2ncn(C(C)C)c2c1 | inactive: -6.4%
20 | Cc1cc(C)n2c(Br)c(CN3CCCC(C)C3)nc2n1 (configuration not stated) | inactive: -5.5%
21 | Cc1c(C(=O)N2CCN(C)CC2)oc2c1C(=O)CC(C)(C)C2 | inactive: 5.4%
22 | O=C(O)CCCC(=O)N1N=C(c2ccco2)CC1c1ccco1 (configuration not stated) | inconclusive: 10%
23 | Cc1ccc(C(O)Cn2cc([N+](=O)[O-])nc2C)cc1 (configuration not stated) | inconclusive: -29.9%

Among those listed so far, 3 contain a furan ring, fused or not.
Row | Compound | inhibition
7 | O=C(Nc1ccc(Cl)cc1C(=O)NCC1CCCO1)c1ccco1 (configuration not stated) | inactive: -3.2%
21 | Cc1c(C(=O)N2CCN(C)CC2)oc2c1C(=O)CC(C)(C)C2 | inactive: 5.4%
22 | O=C(O)CCCC(=O)N1N=C(c2ccco2)CC1c1ccco1 (configuration not stated) | inconclusive: 10%

(more compounds)

Row | Compound | inhibition
24 | O=C(c1cc(Cl)ccc1Cl)N1CCc2ccccc21 | inconclusive: 3%
25 | OCCC1CN(CCCc2ccccc2)CCN1CCc1ccccc1 (configuration not stated) | inconclusive: 9%
26 | N/C(=N\OC(=O)C12CC3CC(CC(C3)C1)C2)c1ccccc1 | inactive: 4.6%
27 | Cc1ccc(/C=N/N2CCN(c3ccncc3S(=O)(=O)N3CCCCC3)CC2)cc1 | inconclusive: -7.7%
28 | Cn1ncc([N+](=O)[O-])c1C(=O)Nc1ccc(-c2ccccc2)cc1 | inconclusive: 22.2%
29 | O=C(CNC(=O)c1ccc(Cl)cc1)N/N=C/c1cccnc1 | inconclusive: -87.3%
30 | COc1cc(CC(=O)OCC(=O)NC(C)c2ccccc2)cc(OC)c1OC (configuration not stated) | inconclusive: -11.5%
31 | CC(Oc1ccccc1Cl)C(=O)Nc1ccc(S(=O)(=O)N2CCCC2)cc1 (configuration not stated) | inactive: 7.1%
32 | COc1ccc(N2CCN(C(=O)c3ccc(NS(=O)(=O)c4ccc(F)cc4)cc3)CC2)cc1 | inconclusive: 10.5%
33 | COc1ccccc1NC(=O)Nc1ncccc1C | inactive: 1.4%
34 | CC1=[N+](C)c2ccc3ccccc3c2C1(C)C | inconclusive: -86.4%
35 | c1ccc(COC(CN2CCCCCC2)CN2CCCCCC2)cc1 | inconclusive: 19.6%
36 | O=C(Cc1ccccc1[N+](=O)[O-])NCCc1ccc(F)cc1 | inconclusive: 35.4%
37 | COc1cc(C(=O)NCC(=O)OCc2ccccc2Cl)cc(OC)c1OC | inactive: -4.8%
38 | CC1=NN(c2ccccc2)C(=O)C1N=Nc1cccc(O)c1 (configuration not stated) | inconclusive: -7.9%
39 | Nc1c(C(=O)NCCN2CCOCC2)c2nc3ccccc3nc2n1Cc1ccccc1 | inconclusive: -4.5%
40 | CCOC(=O)C1CCCN(C(=O)c2ccc(S(=O)(=O)N3CCOCC3)cc2)C1 (configuration not stated) | inactive: -3.5%
41 | Cc1ccc(/C=N/NC(=O)c2nnn(-c3nonc3N)c2-c2ccc3c(c2)OCO3)s1 | inactive: 4.2%
42 | O=C(CN1CCN(Cc2ccc(F)cc2)CC1)NCc1ccccc1 | inconclusive: 11.8%
43 | Cc1cc(C(=O)CCl)c(C)n1CCc1ccc(Cl)cc1 | inactive: 0.1%
44 | COc1ccc(N2C(=O)C3C(c4ccc(C(=O)O)cc4)NC(Cc4ccccc4)(C(=O)O)C3C2=O)c([N+](=O)[O-])c1 (configuration not stated) | inactive: 0.8%
45 | Nc1ncnc2c1ncn2[C@@H]1O[C@H](COP(=O)(O)O)[C@@H](O)[C@H]1O | inactive: 1.9%
46 | O=C(CCC(=O)N/N=C/c1ccc(Br)o1)N/N=C/c1ccc(Br)o1 | inconclusive: -16.3%

4 entries out of the list, sorted by molar mass, smallest number first.
Row | Compound | inhibition
14 | NC(=O)Cn1nc(-c2ccccc2)nc1-c1ccccc1 | inconclusive: -12.5%
3 | O=C(Cc1ccc(Cl)cc1)NCCc1c[nH]c2ccccc12 | inconclusive: 21.5%
30 | COc1cc(CC(=O)OCC(=O)NC(C)c2ccccc2)cc(OC)c1OC (configuration not stated) | inconclusive: -11.5%
46 | O=C(CCC(=O)N/N=C/c1ccc(Br)o1)N/N=C/c1ccc(Br)o1 | inconclusive: -16.3%

(cont.)

Row | Compound | inhibition
47 | COc1ccc2cc(C#N)c(N3CCOCC3)nc2c1 | inconclusive: -20.7%
48 | Nc1nc(NCCCN2CCOCC2)nc(Nc2ccc(F)cc2)c1[N+](=O)[O-] | inactive: 1.6%
49 | Oc1c(Br)cc(Br)cc1C=Nc1cccnc1 | inconclusive: 9.8%
50 | CCn1c(SCC(=O)Nc2ccccc2OC)nc(O)cc1=O | inconclusive: -25.6%
51 | Cc1cc(NC(=O)CSc2nc3cc(Cl)ccc3s2)no1 | inactive: -3.7%
52 | O=C(CN1CCN(Cc2ccccc2)CC1)N/N=C/c1ccco1 | inconclusive: -15.2%
53 | S=c1[nH]nc(C2CCCCC2)n1/N=C/c1cccc(Br)c1 | inactive: 19.7%
54 | O=C(N/N=C\c1cc(Br)c(Br)o1)C1COc2ccccc2O1 (configuration not stated) | inconclusive: 192%
55 | CCCc1nc(NCCCOCC)c2nnn(Cc3ccccc3)c2n1 | inconclusive: 22.4%
56 | Cc1[nH]nc2c1C(c1ccsc1)C1=C(CC(C)(C)CC1=O)N2 (configuration not stated) | inactive: 5%
57 | O=C1C2CCCCN2C(=O)N1CCCCN1CCN(c2cccc(Br)c2)CC1 (configuration not stated) | inconclusive: -5.1%
58 | CC(Sc1cccc[n+]1[O-])c1ccccc1 (configuration not stated) | inconclusive: 35.9%
59 | CN1CCN(S(=O)(=O)Cc2ccc(Cl)cc2)CC1 | active: 35.6%
60 | COc1ccc(NC(=O)C(=O)NCC(c2ccco2)N2CCc3ccccc3C2)cc1 (configuration not stated) | inconclusive: -36.6%
61 | Cc1ccc(S(=O)(=O)N/N=C/c2ccc(C#N)cc2)cc1 | inconclusive: 15%
62 | CCCCNC(=S)N(CCO)Cc1cc2cc3c(cc2[nH]c1=O)OCCO3 | inconclusive: 8.2%
63 | O=C(O)c1cccc(NS(=O)(=O)c2ccc3c(c2)OCCCO3)c1 | inactive: -1.5%
64 | CN(C)c1ccc(P(=O)(OC2CCCCC2)C(O)c2ccccn2)cc1 (configuration not stated) | inconclusive: -3.2%
65 | O=C(NCc1ccc(Cl)cc1)N1CCN(Cc2ccccc2)CC1 | inconclusive: 65.8%
66 | Cc1ccccc1C(=O)NC1CCS(=O)(=O)C1 (configuration not stated) | inconclusive: 5.9%
67 | O=C(c1cccc(S(=O)(=O)NCc2ccccc2)c1)N1CCN(Cc2ccccc2)CC1 | inconclusive: -43.9%
68 | COc1ccc(-c2nc3ccc(Cl)cn3c2CC(C)(C)C)cc1OC | inactive: -10.5%
69 | Cc1cccc(NC(=O)NCc2ccc3c(c2)OCO3)c1 | inactive: -3.6%

Row | Compound | inhibition
70 | O=C(C1=NN[C@@H]2C(=O)N(Cc3ccccc3)C(=O)[C@H]12)c1ccc([N+](=O)[O-])cc1 | inconclusive: 20.1%
71 | O=C(CSc1nnc(-c2cccc(S(=O)(=O)N3CCCCC3)c2)o1)c1ccc[nH]1 | inconclusive: -5.4%
72 | COc1ccc(C(=O)CC(=O)C(=O)Nc2ccc(Cl)cc2)cc1 | inconclusive: -33.1%
73 | COc1cc(C(O)P(=O)(OCC(C)C)c2ccc(N(C)C)cc2)cc(OC)c1OC (configuration not stated) | inconclusive: 35.4%
74 | CCc1c(C)nc2ncnn2c1N1CCCC(C(=O)NCc2ccc3c(c2)OCO3)C1 (configuration not stated) | inactive: 2.2%
75 | O=C(CN1CCN(S(=O)(=O)c2ccccc2)CC1)Nc1ccc(Cl)cn1 | inconclusive: 0.9%
76 | CCc1cc2c(Nc3ccccc3O)nc(C)nc2s1 | inconclusive: -19.7%
77 | O=C(CCc1ccccc1)NNC(=O)c1ccc(Cl)cc1 | inconclusive: -3.4%
78 | Nc1nc2nccc(-c3ccc(Cl)cc3)n2n1 | inactive: -27.5%
79 | CC[n+]1c(/C=C(\C)OC)sc2ccccc21 | inactive: -6.3%
80 | COc1ccc2c(c1)c(C(=O)O)c(C)n2C(C)C | inconclusive: 13.1%
81 | Cc1ccc(-c2nc3ncccc3o2)cc1NC(=O)C(C)C | inconclusive: -18.6%
82 | COc1cccc(CSc2nc(N)cc(N)n2)c1 | inconclusive: -0.1%
83 | Cc1cccc(C)c1OC(=O)CN1C(=O)c2ccccc2C1=O | inconclusive: 36.2%
84 | COc1ccc(-c2cn3cc(C)ccc3n2)cc1Br | inactive: -8.7%
85 | O=c1cc(CN2CCN(c3ccc(Cl)c(Cl)c3)CC2)c2ccccc2o1 | inactive: -8.1%
86 | CCOC(=O)/C(=C/C=C1\Sc2cc(C)c(C)cc2N1CC)C(C)=O | inactive: 20.2%
87 | CCC(=O)N1CCc2cc(S(=O)(=O)N(C)c3ccc(OC)cc3OC)ccc21 | inconclusive: -18.7%
88 | COc1cnc(-c2ccccn2)nc1Oc1ccc(Cl)c2ccccc12 | inactive: -7.6%
89 | Cc1c(-c2c(C#N)c(N)nc3c2CCCCCC3)cnn1C | inactive: 2.6%
90 | O=c1[nH]c(=O)n([C@H]2C[C@H](O)[C@@H](CO)O2)cc1F | inactive: -12.9%
91 | CCC(C)N1C(=O)/C(=C/c2c(NCCCOC(C)C)nc3c(C)cccn3c2=O)SC1=S (configuration not stated) | inconclusive: -11.5%
92 | O=C(C1COc2ccccc2O1)N1CCN(c2ccccn2)CC1 (configuration not stated) | inconclusive: 30.8%
